Source: patent US4110472A, “Derivatives of 1-(disubstituted phenoxy)-3-amino-2-hydroxypropanes” (Bayer Aktiengesellschaft, priority 1975, dated 1978)

How the values were obtained:
[1] = tested on: 7-minute complete cerebral ischaemia; experiment: Restricted circulation and mortality after a transient total cerebral ischaemia (experimental apoplexy); format: in vivo; details: cats
Procedure: 3. Restricted circulation and mortality after a transient total cerebral ischaemia ("experimental apoplexy")
A 7-minute complete cerebral ischaemia is caused in curarized cats by inflating a collar placed around the neck.
For cats which have not been pre-treated, the 7-minute cerebral ischaemia is fatal, 94% of all the control animals dying within 48 hours.

[2] = tested on: cerebral blood flow; experiment: Increase in the cerebral blood flow in cats (133 xenon clearance); details: peroral, 100 mg/kg

C(=C\c1ccccc1)/CN1CCN(C(c2ccccc2)c2ccccc2)CC1 [cinnarizin, 1-cinnamyl-4-diphenylmethylpiperazin, reference compound]
activity in the experimental apoplexy test (in words) [1]: inactive
activity on cerebral blood flow (in words) [2]: inactive
